# Results taken from PubChem BioAssay AID504444 (National Center for Advancing Translational Sciences (NCATS), 2011).
# Values joined by “and” are separate entries in the source; they are usually repeats but may differ in a detail not shown here. Equal values may be shown once. Out of some 360,000 compounds screened, about 7,500 (2.1%) were called active. Inconclusive means that the source gave no clear call. Such entries were picked first, then a sample of the others. Calls come from the whole dose curve; as a rule, active = well fitted inhibition curve with a large enough effect; inconclusive = small, poorly fitted or top-dose-only effect, or effect the other way; inactive = flat fitted curve, though single readings scatter. Potencies of inconclusive entries are doubtful fits and often do not repeat.
# Assay: Nrf2 qHTS screen for inhibitors; note: nearly all actives have a fitted effect of over 60% in size
# Conditions: A549 ARE-Fluc reporter, luciferase luminescence, 18-24 h; series mostly up to 46 µM
# In short: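 A549 ARE_Fluc cells (5000/well, 5% FBS OPTI-MEM) pre-incubated 2 h, then treated with compounds 18-24 h at 37C/5% CO2 in concentration-response. CellTiter-Fluor viability read first; BugLite luciferase luminescence after 15 min at room temperature gives Nrf2 activity.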
# Potency is the fitted concentration of half-maximal effect.
row,SMILES,Potency
1,OCc1cn(-c2ccccc2)nc1-c1cc2ccccc2o1,"inconclusive: 20.6 µM [activator, partial curve]"
2,O=C(NCc1cccnc1)c1sc2cc(Cl)ccc2c1Cl,"inconclusive: 5.17 µM [falling, partial curve, poor fit]"
3,CCc1nc2ccccc2c(=O)n1NC(=O)c1c(O)c2cccc3c2n(c1=O)CCC3,"inconclusive: 29.1 µM [falling, partial curve, poor fit]"
4,COc1ccccc1C(=O)Nc1ccccc1SC(=O)c1ccccc1OC,"inconclusive: 4.11 µM [activator, full curve]"
5,COc1ccc(C2=C(C)C(=O)N(Cc3ccc(C(=O)NCc4ccccc4C)cc3)S2(=O)=O)cc1,"inconclusive: 14.6 µM [falling, partial curve, poor fit]"
6,N#Cc1c(N)nc2c(c1N)CC(=O)N2c1ccc(Cl)cc1,"inconclusive: 23.1 µM [activator, single point]"
7,COc1ccc(N/N=C(\C#N)C(N)=O)cc1,"inconclusive: 20.6 µM [activator, partial curve, poor fit]"
8,CC(C(=O)O)n1c2ccccc2c2cnn(C)c(=O)c21 (stereo not drawn),"inconclusive: 1.46 µM [activator, partial curve, poor fit]"
9,COc1cc(OC)cc(C(=O)Nc2nc(CC(=O)NCc3ccccc3OC)cs2)c1,"inconclusive: 18.4 µM [falling, partial curve]"
10,Cc1cccc(OCC(=O)OCc2cc(=O)n3nc(C4CC4)sc3n2)c1,"inconclusive: 29.1 µM [activator, single point]"
11,CCOc1ccc(S(=O)(=O)N2CCN(C(=O)c3sccc3C)CC2)cc1,"inconclusive: 29.1 µM [falling, partial curve, poor fit]"
12,CC12C=CC(=O)C=C1CCC1C2C(O)CC2(C)C1CCC2(O)C(=O)CO (stereo not drawn),active: 0.058 µM
13,Clc1ccc(Cl)c2sc(N3CCCC3)nc12,"inconclusive: 32.6 µM [activator, single point]"
14,O=C(Nc1ccccn1)c1ccc([N+](=O)[O-])cc1Cl,inactive
15,COc1ccc(C(=O)NC(=S)Nc2cccc3ncccc23)cc1[N+](=O)[O-],"inconclusive: 20.6 µM [falling, partial curve, poor fit]"
16,CCOc1ccc(S(=O)(=O)N2CCN(C(=O)c3cc(-c4ccccc4)nn3-c3ccccc3)CC2)cc1,"inconclusive: 2.31 µM [falling, full curve]"
17,S=C(NCC1CCCO1)N1CCc2ccccc2C1 (stereo not drawn),inactive
18,Oc1c(Br)cc(Br)cc1/C=N/NC(=S)N[C@H]1CC2C=CC1C2 (stereo partly drawn),"inconclusive: 29.1 µM [falling, single point]"
19,CCOC(=O)Cc1c(C)nc2c(-c3ccc(OC)c(OC)c3)c(C)nn2c1C,"inconclusive: 25.9 µM [falling, partial curve, poor fit]"
20,COc1cccc2c1OC[C@@H](CO)[C@H]2N(C)C(=O)Nc1ccc(Cl)cc1Cl,active: 18.4 µM
21,COc1ccccc1N1CCN(CC(=O)c2c[nH]c3ccccc23)CC1,"inconclusive: 18.4 µM [falling, single point]"

# Pulled one by one from above:
row,SMILES,Potency
7,COc1ccc(N/N=C(\C#N)C(N)=O)cc1,"inconclusive: 20.6 µM [activator, partial curve, poor fit]"
11,CCOc1ccc(S(=O)(=O)N2CCN(C(=O)c3sccc3C)CC2)cc1,"inconclusive: 29.1 µM [falling, partial curve, poor fit]"
1,OCc1cn(-c2ccccc2)nc1-c1cc2ccccc2o1,"inconclusive: 20.6 µM [activator, partial curve]"

# Remaining list, next part

row,SMILES,Potency
1,Cc1cccc(C(=O)Nc2nnc(S(=O)(=O)N3CCC(C)CC3)s2)c1,"inactive and inconclusive: 651 nM [activator, full curve, poor fit]"
2,COc1ccccc1NS(=O)(=O)c1cccc(NC(=O)Nc2cccc(Cl)c2)c1,"inconclusive: 23.1 µM [falling, single point]"
3,O=C(CCC(=O)N1CC2CCCN2c2ccccc21)NCc1ccccc1F (stereo not drawn),"inconclusive: 13 µM [activator, partial curve]"
4,Cc1cc(C)cc(OC(=O)c2cc(-c3ccc4c(c3)OCCO4)on2)c1,"inconclusive: 18.4 µM [falling, single point]"
5,Nc1nc(NCCc2ccccc2)nc(NCc2ccccc2)c1[N+](=O)[O-],"inconclusive: 16.4 µM [falling, single point]"
6,COc1ccc(/C=C/c2nc(-c3ccccc3O)n(-c3ccccc3)n2)cc1OC,inactive
7,CCC(C)C(NC(=O)OC(C)(C)C)C(=O)NC1COC2CC(n3cc(F)c(=O)[nH]c3=O)OC12 (stereo not drawn),inactive
8,CC(C)Nc1ccc(C(CC(N)=O)NC(=O)Cc2ccc(Cl)cc2)cc1[N+](=O)[O-] (stereo not drawn),"inconclusive: 11.6 µM [falling, partial curve]"
9,CN(C)c1ccc(C=NNC(=O)c2cccnc2)cc1,"inconclusive: 6.51 µM [activator, full curve, poor fit]"
10,CCCc1cc(=O)[nH]c(SCC(=O)N2CCc3cc(OC)c(OC)cc3C2)n1,"inconclusive: 29.1 µM [falling, partial curve, poor fit]"
11,Cc1cc(NC(=O)Cc2ccccc2[N+](=O)[O-])no1,inactive
12,O=C(NCc1cccs1)c1cc(-c2ccccc2)nn1CC1CC(c2cccc([N+](=O)[O-])c2)=NO1 (stereo not drawn),"inconclusive: 20.6 µM [falling, single point]"
13,Cc1ccc(S(=O)(=O)N2CCN(C(=O)COC(=O)c3cc(C)oc3C)CC2)cc1,inactive
14,COc1ccc(COC(=O)NC2CCN(S(=O)(=O)c3ccc(OC)cc3)CC2)cc1,inactive
15,O=C(CSc1nc2ccccc2o1)N1N=C(c2cccs2)CC1c1ccc(F)cc1 (stereo not drawn),"inconclusive: 23.1 µM [falling, single point]"
16,O=C(C1CCN(S(=O)(=O)c2cccc3nonc23)CC1)N1CCN(c2ccc(F)cc2)CC1,"inconclusive: 25.9 µM [falling, single point]"
17,COCC(=O)N/N=C/c1c(C)[nH]n(-c2ccccc2)c1=O,active: 14.6 µM
18,COC(=O)CCC(=O)N1CCCC(N2CCN(c3cccc(C(F)(F)F)c3)CC2)C1 (stereo not drawn),inactive
19,CC(=O)c1cccc(NC(=O)c2ccc3c(c2)CCCC3)c1,"inconclusive: 1.64 µM [activator, partial curve]"
20,CCc1ccc(NC(=O)NCCN2CCc3ccccc3C2)cc1,"inconclusive: 3.66 µM [activator, partial curve, poor fit]"
21,COc1ccc(NC(=S)N=Nc2c(O)[nH]c3ccccc23)cc1,active: 9.2 µM

row,SMILES,Potency
1,C[C@H]1CN([C@@H](C)CO)C(=O)c2cccc(NC(=O)Nc3ccc(C(F)(F)F)cc3)c2O[C@@H]1CN(C)Cc1ccc(Cl)c(Cl)c1,"inconclusive: 29.1 µM [falling, single point]"
2,Cn1ccc(C(=O)OCC(=O)Nc2ccccc2)n1,"inconclusive: 6.51 µM [activator, single point]"
3,CCOC(=O)Cc1csc(NC(=O)C(CC(C)C)NC(=O)C2CCCCC2)n1 (stereo not drawn),"inconclusive: 18.4 µM [falling, partial curve, poor fit]"
4,O=C(O)c1cccc(COc2cccc3ccccc23)c1,"inconclusive: 7.31 µM [activator, partial curve]"
5,CC(C)(C)c1ccc(OCC(=O)N/N=C/c2cc(Br)ccc2OC(=O)c2ccco2)cc1,inactive
6,CCN(CC)S(=O)(=O)c1ccc(N2CCOCC2)c(NC(=O)c2[nH]c(C)c(C(C)=O)c2C)c1,"inconclusive: 6.51 µM [falling, partial curve]"
7,COc1ccc(C(C)=O)cc1CSc1nnc(Nc2ccc(C)cc2)s1,"inconclusive: 29.1 µM [falling, single point]"
8,O=C(COC(=O)c1ccc2[nH]c3c(c2c1)CCCC3)Nc1ccccc1Cl,"inconclusive: 13 µM [falling, single point]"
9,Cc1c(C(=O)NCc2ccoc2)oc2ccc3c(c12)C(=O)CC(C)(C)O3,"inconclusive: 32.6 µM [falling, single point]"
10,C/C(=N\NC(=O)c1cc(C)[nH]n1)c1cccs1,"inconclusive: 1.46 µM [activator, full curve, poor fit]"
11,COc1ccc(-n2c(SCC3OCCO3)nc3c(sc(=S)n3-c3ccccc3)c2=O)cc1OC,"inconclusive: 13 µM [falling, partial curve, poor fit]"
12,CCOc1ccc(Br)cc1S(=O)(=O)Nc1ncn[nH]1,"inconclusive: 9.2 µM [activator, partial curve, poor fit]"
13,Cc1c(/N=C(\[O-])Nc2ccc(Br)cc2)sn[n+]1C,"inconclusive: 0.517 µM [activator, full curve, poor fit]"
14,COc1ccc(N(C)S(=O)(=O)c2cccc(C(=O)NCc3ccc4c(c3)OCO4)c2)cc1,"inconclusive: 14.6 µM [falling, partial curve]"
15,O=C(c1ccc(S(=O)(=O)N2CCCCC2)cc1)N1CCN(c2ccccc2F)CC1,inactive
16,Cc1ccc2c(c1)N(CC(=O)N1CCCCCC1)C(=O)CO2,"inconclusive: 13 µM [falling, partial curve, poor fit]"
17,CC(C)C(NC(=O)Cc1ccccc1)C(=O)N1CCN(c2cccc(Cl)c2)CC1 (stereo not drawn),"inconclusive: 9.2 µM [falling, partial curve]"
18,CCCN(CCC)C(=O)C1CCN(c2cc(C)nc3c(-c4ccc(OC)c(OC)c4)c(C)nn23)CC1,inactive
19,Cc1cc(NC(=O)CSc2nnc(-c3ccncc3)n2Cc2ccccc2)n(-c2ccccc2)n1,"inconclusive: 9.2 µM [falling, partial curve]"
20,C=CCNc1nc(NCc2ccccc2)c(C#N)c2c1CN(C)CC2,"inconclusive: 20.6 µM [activator, single point]"
21,Cc1ccc(CNC(=O)CCS(=O)(=O)c2ccc3c(c2)CC(C)N3C(=O)C2CC2)cc1 (stereo not drawn),"inconclusive: 20.6 µM [activator, partial curve, poor fit] and inconclusive: 29.1 µM [activator, single point]"
